Earlier results as cited in US20060148837A1, “Compositions and methods for treatment of coughing, sneezing, rhinorrhea, and/or nasal obstruction” (Everett Laboratories, Inc., priority 2005, published 2006).
Counter-ions that a name gives are not always drawn. At least one structure is not confirmed: it was looked up by name or label, or the drawing left a doubt.

Conditions: weight for weight basis

COc1ccc2c3c1O[C@H]1C(=O)CC[C@H]4[C@@H](C2)N(C)CC[C@]314 [Hydrocodone, 4,5α-epoxy-3-methoxy-17-methylmorphinan-6-one tartrate (1:1) hydrate (2:5)]
antitussive potency relative to codeine: three to eight times as potent as codeine
